The values that follow come from publication PMC11589140.

The chains behind the UniProt entries cited, without tags or fusion partners.
UniProt Q13547: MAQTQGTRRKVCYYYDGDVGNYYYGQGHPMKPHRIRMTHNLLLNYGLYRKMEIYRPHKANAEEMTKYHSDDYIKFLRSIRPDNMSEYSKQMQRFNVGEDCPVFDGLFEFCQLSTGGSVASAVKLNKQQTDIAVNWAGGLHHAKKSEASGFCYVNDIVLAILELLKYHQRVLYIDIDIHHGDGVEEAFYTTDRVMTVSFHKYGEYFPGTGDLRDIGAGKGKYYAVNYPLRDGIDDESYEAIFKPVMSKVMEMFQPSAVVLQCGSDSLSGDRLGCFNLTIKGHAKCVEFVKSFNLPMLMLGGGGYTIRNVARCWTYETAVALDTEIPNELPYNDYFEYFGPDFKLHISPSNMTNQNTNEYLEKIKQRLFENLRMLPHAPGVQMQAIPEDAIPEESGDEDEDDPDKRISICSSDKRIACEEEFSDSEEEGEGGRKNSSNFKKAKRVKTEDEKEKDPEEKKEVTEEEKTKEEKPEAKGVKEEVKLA
UniProt Q99684: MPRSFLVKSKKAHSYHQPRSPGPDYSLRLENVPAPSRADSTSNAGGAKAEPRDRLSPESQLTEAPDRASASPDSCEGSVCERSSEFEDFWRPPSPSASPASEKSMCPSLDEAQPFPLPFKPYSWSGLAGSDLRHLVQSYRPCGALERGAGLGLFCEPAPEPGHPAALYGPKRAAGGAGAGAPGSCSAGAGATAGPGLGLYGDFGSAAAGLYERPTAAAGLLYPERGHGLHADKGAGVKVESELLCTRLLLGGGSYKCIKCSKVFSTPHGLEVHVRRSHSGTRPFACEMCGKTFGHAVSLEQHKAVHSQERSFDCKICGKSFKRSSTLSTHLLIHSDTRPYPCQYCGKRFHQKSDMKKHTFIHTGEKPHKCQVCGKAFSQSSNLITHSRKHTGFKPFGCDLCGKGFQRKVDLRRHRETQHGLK
UniProt O75376: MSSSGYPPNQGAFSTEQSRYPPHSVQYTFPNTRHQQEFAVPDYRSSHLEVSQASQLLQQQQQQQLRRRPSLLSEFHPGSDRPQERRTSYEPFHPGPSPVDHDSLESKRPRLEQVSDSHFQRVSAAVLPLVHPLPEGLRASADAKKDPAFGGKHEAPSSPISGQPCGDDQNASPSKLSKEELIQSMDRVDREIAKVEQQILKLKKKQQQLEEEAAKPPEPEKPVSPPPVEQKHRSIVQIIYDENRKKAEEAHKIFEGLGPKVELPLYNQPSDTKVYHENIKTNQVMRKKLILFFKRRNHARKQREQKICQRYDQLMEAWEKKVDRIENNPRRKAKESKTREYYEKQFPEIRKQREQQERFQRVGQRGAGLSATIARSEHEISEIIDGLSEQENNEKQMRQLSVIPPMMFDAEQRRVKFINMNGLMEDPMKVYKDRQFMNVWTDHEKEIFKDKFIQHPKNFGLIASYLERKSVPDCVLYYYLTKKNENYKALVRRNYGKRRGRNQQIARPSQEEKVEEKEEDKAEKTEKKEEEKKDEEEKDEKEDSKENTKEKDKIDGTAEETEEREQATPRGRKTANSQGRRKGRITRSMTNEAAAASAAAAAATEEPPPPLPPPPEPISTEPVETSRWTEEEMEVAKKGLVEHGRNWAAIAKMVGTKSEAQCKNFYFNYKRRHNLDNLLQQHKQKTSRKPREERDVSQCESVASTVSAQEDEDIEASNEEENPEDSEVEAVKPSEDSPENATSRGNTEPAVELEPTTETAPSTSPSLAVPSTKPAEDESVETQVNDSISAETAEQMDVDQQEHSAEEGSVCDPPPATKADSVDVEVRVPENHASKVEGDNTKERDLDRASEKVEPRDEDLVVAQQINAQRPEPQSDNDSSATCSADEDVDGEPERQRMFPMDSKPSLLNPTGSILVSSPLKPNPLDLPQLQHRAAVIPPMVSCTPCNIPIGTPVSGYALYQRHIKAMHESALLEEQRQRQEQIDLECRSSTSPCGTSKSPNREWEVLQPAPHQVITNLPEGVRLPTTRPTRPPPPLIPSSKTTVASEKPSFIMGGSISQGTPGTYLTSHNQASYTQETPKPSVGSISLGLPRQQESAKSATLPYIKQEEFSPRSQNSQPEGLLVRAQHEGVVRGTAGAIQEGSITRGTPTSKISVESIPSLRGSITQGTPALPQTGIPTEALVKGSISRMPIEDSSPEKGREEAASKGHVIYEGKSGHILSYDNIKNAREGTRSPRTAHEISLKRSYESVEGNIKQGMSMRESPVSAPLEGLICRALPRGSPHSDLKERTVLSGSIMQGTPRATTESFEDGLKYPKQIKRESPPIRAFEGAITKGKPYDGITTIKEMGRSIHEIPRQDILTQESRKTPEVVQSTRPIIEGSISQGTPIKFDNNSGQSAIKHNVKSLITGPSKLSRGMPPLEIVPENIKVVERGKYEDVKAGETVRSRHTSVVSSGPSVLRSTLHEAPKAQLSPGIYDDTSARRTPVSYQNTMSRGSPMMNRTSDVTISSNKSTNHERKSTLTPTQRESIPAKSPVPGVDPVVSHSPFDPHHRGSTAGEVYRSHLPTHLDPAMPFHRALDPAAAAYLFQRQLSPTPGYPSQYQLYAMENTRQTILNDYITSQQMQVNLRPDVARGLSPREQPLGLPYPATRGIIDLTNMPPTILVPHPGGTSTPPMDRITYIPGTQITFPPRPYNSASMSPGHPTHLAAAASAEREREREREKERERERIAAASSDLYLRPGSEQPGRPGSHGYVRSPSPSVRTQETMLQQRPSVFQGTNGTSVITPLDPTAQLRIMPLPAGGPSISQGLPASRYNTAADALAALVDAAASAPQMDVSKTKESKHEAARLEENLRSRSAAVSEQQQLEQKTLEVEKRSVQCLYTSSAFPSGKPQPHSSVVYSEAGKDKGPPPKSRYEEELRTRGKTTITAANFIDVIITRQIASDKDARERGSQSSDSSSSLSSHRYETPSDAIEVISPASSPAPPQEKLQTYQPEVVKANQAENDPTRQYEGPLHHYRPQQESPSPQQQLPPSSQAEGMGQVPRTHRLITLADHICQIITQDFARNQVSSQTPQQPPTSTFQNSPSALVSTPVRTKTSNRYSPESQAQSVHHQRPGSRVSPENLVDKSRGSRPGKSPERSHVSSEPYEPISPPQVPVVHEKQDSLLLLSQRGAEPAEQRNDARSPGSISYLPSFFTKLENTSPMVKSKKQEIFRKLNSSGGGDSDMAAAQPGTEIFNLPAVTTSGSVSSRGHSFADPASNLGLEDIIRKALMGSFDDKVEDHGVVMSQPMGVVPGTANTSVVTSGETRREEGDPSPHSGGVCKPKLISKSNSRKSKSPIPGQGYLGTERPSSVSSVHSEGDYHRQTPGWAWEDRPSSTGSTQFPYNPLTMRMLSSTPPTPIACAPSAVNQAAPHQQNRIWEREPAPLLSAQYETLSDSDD
UniProt O14744: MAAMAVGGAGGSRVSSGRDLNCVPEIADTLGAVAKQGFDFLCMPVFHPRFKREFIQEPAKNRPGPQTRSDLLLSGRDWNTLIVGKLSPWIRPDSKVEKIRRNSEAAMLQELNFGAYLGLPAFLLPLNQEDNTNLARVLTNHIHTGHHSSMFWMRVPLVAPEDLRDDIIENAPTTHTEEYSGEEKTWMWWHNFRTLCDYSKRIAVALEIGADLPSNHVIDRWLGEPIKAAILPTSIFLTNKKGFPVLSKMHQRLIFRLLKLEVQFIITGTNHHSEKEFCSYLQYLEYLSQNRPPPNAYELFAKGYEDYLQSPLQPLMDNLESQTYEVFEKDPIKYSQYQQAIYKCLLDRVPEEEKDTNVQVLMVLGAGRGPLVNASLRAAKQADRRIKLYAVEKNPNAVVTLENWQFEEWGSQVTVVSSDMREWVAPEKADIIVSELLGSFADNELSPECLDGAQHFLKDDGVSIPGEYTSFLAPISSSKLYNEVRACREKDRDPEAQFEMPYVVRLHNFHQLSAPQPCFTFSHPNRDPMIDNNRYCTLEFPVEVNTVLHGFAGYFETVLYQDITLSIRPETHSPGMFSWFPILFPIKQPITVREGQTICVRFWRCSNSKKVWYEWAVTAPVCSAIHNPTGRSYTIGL

Test [1] deals with T1, HA-tagged RUNX1T1, wild type (human) (UniProt Q06455).
T1 sequence: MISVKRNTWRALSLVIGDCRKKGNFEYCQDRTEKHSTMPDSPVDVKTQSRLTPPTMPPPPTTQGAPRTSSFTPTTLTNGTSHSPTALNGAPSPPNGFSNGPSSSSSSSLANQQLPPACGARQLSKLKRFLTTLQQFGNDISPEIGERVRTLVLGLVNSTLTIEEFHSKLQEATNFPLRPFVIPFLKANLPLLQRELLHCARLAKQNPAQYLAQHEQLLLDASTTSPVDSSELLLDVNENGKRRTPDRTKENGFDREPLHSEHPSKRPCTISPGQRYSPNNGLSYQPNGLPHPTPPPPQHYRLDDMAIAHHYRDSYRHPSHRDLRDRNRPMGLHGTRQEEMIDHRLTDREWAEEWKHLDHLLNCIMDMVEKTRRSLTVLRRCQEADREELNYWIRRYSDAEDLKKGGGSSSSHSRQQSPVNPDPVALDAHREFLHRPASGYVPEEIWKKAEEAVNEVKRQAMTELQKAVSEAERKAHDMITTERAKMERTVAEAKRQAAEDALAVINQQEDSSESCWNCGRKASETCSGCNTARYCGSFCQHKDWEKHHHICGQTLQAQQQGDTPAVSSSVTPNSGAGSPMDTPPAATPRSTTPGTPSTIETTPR
Kind of test: co-IP; data not shown; HA-tagged RUNX1T1 (WT or mutants) and FLAG-tagged putative interactors co-expressed in HEK-293 cells and co-immunoprecipitated.

For test [2], the target named is T2, HA-tagged RUNX1T1 E163K (human) (UniProt Q06455).
T2 sequence: T1 sequence with E163K
Described as above.

The target of test [3] is T3, HA-tagged RUNX1T1 E146K (human) (UniProt Q06455).
T3 sequence: T1 sequence with E146K
Described as above.

The target in test [4] is T2, HA-tagged RUNX1T1 E163K (human). The test is described as follows: co-IP; HEK-293T cells expressing HA-RUNX1T1 (WT or mutated) transfected with FLAG-tagged partner; lysis in 25 mM Tris-HCl pH 8, 150 mM NaCl, 1% NP-40; precipitated 1.5 h on anti-HA affinity resin, 4 washes; blot.
Test [5] deals with T3, HA-tagged RUNX1T1 E146K (human). The description is as above.
Test [6] has as its target T2, HA-tagged RUNX1T1 E163K (human). The test is described as follows: co-IP; validation of mass spectrometry hits by standard co-IP of HA-RUNX1T1 (WT or mutants) from HEK-293T lysate; PRMT5 and DBC1 found by blot.
In test [7] the target is T3, HA-tagged RUNX1T1 E146K (human). Described as above.

Substitutions are numbered along the chain they refer to. These are yes or no findings as the source states them, for the method shown. Binding seen in cells or lysates may run through a third protein. Some results given as binding are weak or reduced against the parent protein; the word gives no strength. Tags and fused reporters may be left off the sequences shown.

In the case of “FLAG-tagged HDAC1 (from UniProt Q13547 1-482)”, the binding result in test [1], in test [2] and in test [3] was “binds” in each case.

Regarding “FLAG-tagged GFI-1 (from UniProt Q99684 1-422)”, the binding entry in test [4] and in test [5] was “binds” throughout.

Turning to “FLAG-tagged N-CoR (from UniProt O75376 1-2440)”, the binding entry in test [1], in test [2] and in test [3] was “binds” throughout.

On to “arginine methyltransferase PRMT5 (from UniProt O14744 1-637)”, for which the binding entry in test [6] and in test [7] was “binds” throughout.
